Results deposited as PubChem BioAssay AID1224828 (NIAID, 2016).

- Purpose: 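Regulators linking TLR4 signalling to p65 nuclear translocation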 (primary screen)
- System: mouse RAW264.7 G9 macrophage reporter cells (GFP-p65, Tnf promoter-mCherry)
- Reagents: siRNA pool against mouse genes, 100 nM
- Time to read-out: 2 days siRNA transfection, then 40 min LPS before fixation
- Conditions: LPS (Salmonella minnesota R595) at 10 ng/ml
- Measurement: 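Imaged p65 nuclear translocation ratio, normalised to the plate median, converted to robust z-scores and averaged across two replicates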
- Direction: p65 translocation robust z-score: higher = more nuclear NF-kappaB p65 after LPS than the plate median; nuclear/cytoplasmic p65 ratio: higher = more nuclear NF-kappaB p65
- Call rule: 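Called active when z exceeds 3.3 or falls under -1.56 (median of Tlr4 controls), giving activity score of at least 50; no calls for control wells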
- Meaning of the calls: active = hit (p65 shift raised or lowered); inactive = no clear change
Here is an unselected part of about 17,000 reagents tested. 762 of all reagents (4.5%) count as active. 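Active calls include both raised and lowered p65 entry, mostly lowered; wells with fewer than 50 cells lack a z-score.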 Raw values are not corrected between plates.

Target gene	PubChem SID	p65 translocation robust z-score	nuclear/cytoplasmic p65 ratio, rep 1	nuclear/cytoplasmic p65 ratio, rep 2	low cell count flag	Call
Lce1e	SID315473605	-0.84	1.4	1.36	enough cells to score	inactive
Man1a	SID315467823	-1.37	1.51	1.4	enough cells to score	inactive
Trak1	SID315472831		1.12	1.15	fewer than 50 cells per well; well left out of scoring	inactive
Cxcl11	SID315471359	-0.47	1.46	1.27	enough cells to score	inactive
Srsf6	SID315473354	0.08	1.34	1.33	enough cells to score	inactive
Or8g28	SID315480175	1.95	1.81	1.38	enough cells to score	inactive
Hprt1	SID315467290	0.77	1.45	1.56	enough cells to score	inactive
Or2y1e	SID315480141	-1.31	1.56	1.12	enough cells to score	inactive
Armc7	SID315480981	0.29	1.68	1.64	enough cells to score	inactive
Tgfbr1	SID315469693	-0.01	1.47	1.38	enough cells to score	inactive
LOC243676 (retired record)	SID315479698	-0.39	1.52	1.21	enough cells to score	inactive
Ikzf3	SID315470156	0.01	1.54	1.46	enough cells to score	inactive
Hoxb8	SID315467265	1.06	1.83	1.67	enough cells to score	inactive
Rnf8	SID315471886	-0.77	1.26	1.55	enough cells to score	inactive
Chac1	SID315473710	0.22	1.37	1.5	enough cells to score	inactive
Dlx5	SID315466340	1.2	1.36	1.51	enough cells to score	inactive
Nbr1	SID315468105	-0.05	1.46	1.32	enough cells to score	inactive
Map7	SID315468012	0.55	1.53	1.39	enough cells to score	inactive
Npnt	SID315477003	2.2	1.99	1.91	enough cells to score	inactive
Mesp2	SID315467907	-2.03	1.39	1.26	enough cells to score	active
Tnf	SID315469758	-0.21	1.45	1.53	enough cells to score	inactive
Ly6h	SID315470239	-0.26	1.55	1.61	enough cells to score	inactive
Raly	SID315468890	-0.41	1.34	1.16	enough cells to score	inactive
Lasp1	SID315467732	-1.18	1.39	1.27	enough cells to score	inactive

No new results follow: 3 of the entries above.
Target gene	PubChem SID	p65 translocation robust z-score	nuclear/cytoplasmic p65 ratio, rep 1	nuclear/cytoplasmic p65 ratio, rep 2	low cell count flag	Call
Armc7	SID315480981	0.29	1.68	1.64	enough cells to score	inactive
Tgfbr1	SID315469693	-0.01	1.47	1.38	enough cells to score	inactive
LOC243676 (retired record)	SID315479698	-0.39	1.52	1.21	enough cells to score	inactive
